Assay results taken from patent US10563263B2, “Genetic polymorphisms associated with statin response and cardiovascular diseases, methods of detection and uses thereof” (CELERA CORPORATION, priority 2010, dated 2020).
The source gives many values for each of these; only a part stands here.

Tested on: CVD (CHD or stroke)
Experiment: WOSCOPS: SNP by pravastatin treatment interaction, logistic regression (synergy index), CVD endpoint
Format: in vivo, human
Excerpt: CARE was a secondary prevention trial and WOSCOPS was a primary prevention trial.
The CHD endpoint was defined in the analyses herein of CARE as a composite endpoint of fatal CHD, definite non-fatal MI, or revascularization, and was defined in the analyses herein of WOSCOPS as a composite endpoint of death from CHD, nonfatal MI, or revascularization. In both the CARE and WOSCOPS analyses herein, the CVD endpoint was defined as a composite endpoint of CHD or stroke. […] Revascularization, which can include percutaneous transluminal coronary angioplasty (PTCA), stent placement, and coronary artery bypass graft (CABG), are medical interventions that indicate the presence of CHD.
Cohort and case-only study designs were used to identify SNPs associated with response to statin treatment.
For each SNP, a logistic regression model having treatment status as the dependent variable and SNP as the independent predictor variable was performed, with terms for age, sex and race included in the model as covariates. The anti-log of the regression coefficient corresponding to the SNP is an estimate of the synergy index (SI) (Davis et al., “Imputing gene-treatment interactions when the genotype distribution is unknown using case-only and putative placebo analyses-a new method for the Genetics of Hypertension Associated Treatment (GenHAT) study”, Statistics in Medicine 23: (2004), pages 2413-2427). The SI is a ratio of odds ratios: for example in the CARE and WOSCOPS studies, the SI represents the factor by which the odds-ratio of statin treatment, compared with placebo, among major homozygous individuals is multiplied by in order to obtain the odds-ratio of treatment vs. placebo among heterozygous individuals; and multiplied by a second time to obtain the odds-ratio of treatment vs. placebo in minor homozygous individuals. […] In a randomized clinical trial, genotype and treatment are independent by design.

CC[C@H](C)C(=O)O[C@H]1C[C@H](O)C=C2C=C[C@H](C)[C@H](CC[C@@H](O)C[C@@H](O)CC(=O)O)[C@H]21 [Pravastatin, pravastatin]
OR (WOSCOPS, rs7557560, allele T, REC, Imputed): 6.446
OR (WOSCOPS, rs7562462, allele T, DOM, Imputed): 1.588
OR (WOSCOPS, rs7607447, allele T, REC, Imputed): 1.964
OR (WOSCOPS, rs7639053, allele A, ADD, Imputed): 1.6
OR (WOSCOPS, rs7648163, allele C, REC, Imputed): 2.989
OR (WOSCOPS, rs7653190, allele C, ADD, Imputed): 1.616
OR (WOSCOPS, rs7653685, allele C, DOM, Genotyped): 2.42
OR (WOSCOPS, rs7684899, allele C, DOM, Imputed): 0.6667
OR (WOSCOPS, rs7701604, allele G, ADD, Imputed): 0.235
OR (WOSCOPS, rs7701604, allele G, DOM, Imputed): 0.235
OR (WOSCOPS, rs7703676, allele C, ADD, Imputed): 0.235
OR (WOSCOPS, rs7703676, allele C, DOM, Imputed): 0.235
OR (WOSCOPS, rs7711358, allele A, DOM, Imputed): 0.6113
OR (WOSCOPS, rs7713251, allele C, REC, Imputed): 2.559
OR (WOSCOPS, rs7737608, allele G, DOM, Imputed): 1.5
OR (WOSCOPS, rs7762993, allele A, ADD, Imputed): 1.373
OR (WOSCOPS, rs7762993, allele A, DOM, Imputed): 1.537
OR (WOSCOPS, rs7767265, allele G, DOM, Imputed): 1.53
OR (WOSCOPS, rs7771264, allele T, DOM, Imputed): 0.5507
OR (WOSCOPS, rs7795792, allele T, REC, Imputed): 0.4161
OR (WOSCOPS, rs7806481, allele G, REC, Imputed): 0.628
OR (WOSCOPS, rs7808536, allele G, DOM, Imputed): 1.952
OR (WOSCOPS, rs7814819, allele G, ADD, Imputed): 1.743
OR (WOSCOPS, rs7814819, allele G, DOM, Imputed): 1.939
OR (WOSCOPS, rs7815952, allele T, DOM, Imputed): 2.739
OR (WOSCOPS, rs7834090, allele T, DOM, Imputed): 2.739
OR (WOSCOPS, rs7859250, allele C, DOM, Imputed): 0.4711
OR (WOSCOPS, rs7863577, allele A, ADD, Genotyped): 0.5916
OR (WOSCOPS, rs7863577, allele A, DOM, Genotyped): 0.5571
OR (rs152707 allele A, ADD model, Imputed): 0.7681
OR (rs152712 allele C, ADD model, Genotyped): 0.7606
OR (rs208026 allele A DOM, Genotyped): 1.516
OR (rs208029 allele T DOM, Imputed): 1.45
OR (rs208757 allele G DOM, Imputed): 1.473
OR (rs229775 allele A REC, Imputed): 0.5915
OR (rs229815 allele T REC, Imputed): 0.5493
OR (rs229829 allele C REC, Imputed): 0.6223
OR (rs229831 allele A REC, Imputed): 0.646
OR (rs238252 allele G ADD, Imputed): 1.531
OR (rs238252 allele G DOM, Imputed): 1.593
OR (rs710832, allele A (A1), model REC, Genotyped, WOSCOPS): 0.256
OR (rs742827, allele A (A1), model ADD, Imputed, WOSCOPS): 1.374
OR (rs742827, allele A (A1), model REC, Imputed, WOSCOPS): 1.393
OR (rs892575, Imputed, allele T, ADD model, WOSCOPS): 1.417
OR (rs892583, Imputed, allele G, ADD model, WOSCOPS): 1.437
OR (rs915494, Imputed, allele A, ADD model, WOSCOPS): 1.204
OR (rs915494, Imputed, allele A, DOM model, WOSCOPS): 1.279
OR (rs917295, Imputed, allele G, DOM model, WOSCOPS): 0.6021
OR (rs922594, Imputed, allele T, DOM model, WOSCOPS): 0.5825
OR (rs937890, Imputed, allele G, DOM model, WOSCOPS): 0.7037
OR (rs949016, Imputed, allele C, ADD model, WOSCOPS): 1.437
OR (rs966583, Imputed, allele A, ADD model, WOSCOPS): 0.7239
OR (rs966583, Imputed, allele A, DOM model, WOSCOPS): 0.6175
OR (rs974130, Genotyped, allele A, REC model, WOSCOPS): 2.214
OR (rs977160, Imputed, allele T, ADD model, WOSCOPS): 1.378
OR (rs1116596 allele T, DOM model, Imputed, WOSCOPS): 0.7035
OR (rs1149349 allele T, DOM model, Imputed, WOSCOPS): 1.606
OR (rs1149350 allele A, ADD model, Imputed, WOSCOPS): 1.546
OR (rs1149350 allele A, DOM model, Imputed, WOSCOPS): 1.835
OR (rs1429321 allele A, DOM model, Imputed): 1.545
OR (rs1429326 allele T, ADD model, Imputed): 1.514
OR (rs1429326 allele T, DOM model, Imputed): 1.573
OR (rs1444741 allele A, DOM model, Imputed): 0.5155
OR (rs1449916 allele C, DOM model, Imputed): 0.4287
OR (rs1459523 allele A, ADD model, Imputed): 1.45
OR (rs1476714 allele A, DOM model, Imputed): 0.6887
OR (rs1486723 allele C, REC model, Imputed): 0.6161
OR (rs1495375 allele A, ADD model, Imputed): 0.6996
OR (rs1495375 allele A, DOM model, Imputed): 0.6354
OR (rs1495381 allele T, REC model, Imputed): 1.661
OR (rs1498061 allele C, ADD model, Imputed): 0.614
OR (rs1498992 allele G, DOM model, Imputed): 0.7209
OR (rs1499001 allele T, DOM model, Imputed): 0.7112
OR (rs1512988 allele A, ADD model, Imputed): 0.6768
OR (rs1512988 allele A, DOM model, Imputed): 0.6068
OR (rs1512989 allele T, ADD model, Imputed): 0.6768
OR (rs1512989 allele T, DOM model, Imputed): 0.6068
OR (rs1512991 allele T, ADD model, Imputed): 0.7609
OR (rs1512991 allele T, DOM model, Imputed): 0.5996
OR (rs1524306 allele C, ADD model, Imputed): 1.457
OR (rs1524310 allele G, ADD model, Imputed): 1.471
OR (rs1527059 allele A, DOM model, Imputed): 0.7558
OR (rs1535866 allele G, DOM model, Imputed): 1.83
OR (rs1567740 allele T, ADD model, Imputed): 0.6776
OR (rs1567740 allele T, DOM model, Imputed): 0.6103
OR (rs1572573 allele A, DOM model, Imputed): 1.458
OR (rs1577497 allele C, REC model, Imputed): 0.5999
OR (rs1581514 allele T, ADD model, Imputed): 1.482
OR (rs1582321 allele T, DOM model, Imputed): 0.6673
OR (rs1582322 allele A, DOM model, Imputed): 0.6832
OR (rs1582323 allele A, DOM model, Imputed): 0.6891
OR (rs1592485 allele C, DOM model, Imputed): 0.6849
OR (rs1600954 allele T, ADD model, Imputed): 1.458
OR (rs1705261 allele A, REC model, Imputed): 1.6
OR (rs1832222 allele G, DOM model, Imputed): 1.458
OR (rs1861327 allele G DOM, Imputed): 0.6673
OR (rs1868581 allele G ADD, Imputed): 1.471
OR (rs1874313 allele A ADD, Imputed): 0.671
OR (rs1874313 allele A DOM, Imputed): 0.5994
OR (rs1876409 allele C DOM, Imputed): 0.6523
OR (rs1913201 allele G ADD, Imputed): 0.7714
OR (rs1913201 allele G DOM, Imputed): 0.5986
OR (rs1936871 allele G DOM, Genotyped): 0.7159
OR (rs1961157 allele T REC, Imputed): 0.4785
OR (rs1987179 allele T ADD, Imputed): 0.7399
OR (rs1987179 allele T DOM, Imputed): 0.6359
OR (rs1990023 allele T DOM, Imputed): 0.7035
OR (rs1995025 allele C DOM, Imputed): 1.335
OR (rs2016194 allele G DOM, Imputed): 0.6887
OR (rs2023651 allele T ADD, Imputed): 0.5946
OR (rs2024902 allele A ADD, Imputed): 1.964
OR (rs2024902 allele A DOM, Imputed): 2.136
OR (rs2025107 allele A DOM, Imputed): 2.24
OR (rs2025108 allele T DOM, Imputed): 2.069
OR (rs2052428 allele C DOM, Imputed): 0.6505
OR (rs2053230 allele C ADD, Imputed): 0.6927
OR (rs2062448 allele T DOM, Imputed): 0.5357
OR (rs2063420 allele C REC, Imputed): 1.886
OR (rs2063591 allele C ADD, Imputed): 0.7822
